Source: paper PMC4860827
Results are given in words; binding and its absence hold for the method and conditions named. Some results given as binding are weak or reduced against the parent protein; the word gives no strength.

Chains of the proteins cited; added tags and fusions are not shown.
UniProt A6NHQ4: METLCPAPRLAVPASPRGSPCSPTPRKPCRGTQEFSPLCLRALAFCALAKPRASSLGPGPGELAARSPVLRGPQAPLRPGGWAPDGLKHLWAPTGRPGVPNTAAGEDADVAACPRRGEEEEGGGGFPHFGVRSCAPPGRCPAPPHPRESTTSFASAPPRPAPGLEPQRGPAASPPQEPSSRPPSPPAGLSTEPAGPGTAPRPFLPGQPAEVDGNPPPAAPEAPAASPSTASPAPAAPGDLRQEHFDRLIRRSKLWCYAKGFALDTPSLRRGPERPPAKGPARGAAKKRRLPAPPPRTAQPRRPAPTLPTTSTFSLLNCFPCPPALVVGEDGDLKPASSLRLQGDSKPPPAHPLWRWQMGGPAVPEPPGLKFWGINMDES

Target: PHF19 (human) (UniProt Q5T6S3)
Assay: biochemical purification (co-purification); purification of PHF19; authors' earlier unpublished work, no details given

binding: binds
Substance: C17orf96 (from UniProt A6NHQ4 1-379)
